Data published in patent US20100055116A1, “Methods and Compositions for Targeting c-Rel” (priority 2006, published 2010).
The exact form of at least one protein or probe is not confirmed. Where cells or extracts were used, other partners may take part.

System: NF-kB/Rel (nuclear extract of B cells) (Mus musculus)
Assay: EMSA
Details: anti-IgM or anti-CD40 stimulated B cells; transient in control, sustained in Pten-mutant; poly(dI-dC), 200 mM KCl, on ice; protein in an extract; label: 32P; folded or branched DNA

GAGAGGGGACTTTCCGATTAGCTTTCGGAAAGTCCCCTC [IgkB loop oligo]
binding result: binds
